According to PMC9308790:
Results are given in words; binding and its absence hold for the method and conditions named. In cells and extracts the contact can be indirect. Here binding means that the protein was enriched with, or labelled near, the bait; the list need not be complete.

Amino acid sequences for entries named in this document (tags omitted).
UniProt Q61510: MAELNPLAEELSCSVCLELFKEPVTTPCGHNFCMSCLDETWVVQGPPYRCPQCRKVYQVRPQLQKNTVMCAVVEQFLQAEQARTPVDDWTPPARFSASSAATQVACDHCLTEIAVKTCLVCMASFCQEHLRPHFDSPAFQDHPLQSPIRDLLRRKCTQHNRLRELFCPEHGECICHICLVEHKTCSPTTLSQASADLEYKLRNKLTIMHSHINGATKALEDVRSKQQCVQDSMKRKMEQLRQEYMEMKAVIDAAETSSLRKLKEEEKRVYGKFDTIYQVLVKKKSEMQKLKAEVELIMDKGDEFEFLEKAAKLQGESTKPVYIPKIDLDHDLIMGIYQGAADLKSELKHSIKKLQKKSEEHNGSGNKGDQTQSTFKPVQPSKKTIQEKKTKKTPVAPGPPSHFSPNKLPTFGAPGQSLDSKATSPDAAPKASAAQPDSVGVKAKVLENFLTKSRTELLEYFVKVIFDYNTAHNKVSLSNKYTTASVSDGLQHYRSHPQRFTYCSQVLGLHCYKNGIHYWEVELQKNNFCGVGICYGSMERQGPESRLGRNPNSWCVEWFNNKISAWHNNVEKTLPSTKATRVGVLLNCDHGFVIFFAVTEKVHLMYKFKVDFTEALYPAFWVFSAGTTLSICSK
UniProt P26450: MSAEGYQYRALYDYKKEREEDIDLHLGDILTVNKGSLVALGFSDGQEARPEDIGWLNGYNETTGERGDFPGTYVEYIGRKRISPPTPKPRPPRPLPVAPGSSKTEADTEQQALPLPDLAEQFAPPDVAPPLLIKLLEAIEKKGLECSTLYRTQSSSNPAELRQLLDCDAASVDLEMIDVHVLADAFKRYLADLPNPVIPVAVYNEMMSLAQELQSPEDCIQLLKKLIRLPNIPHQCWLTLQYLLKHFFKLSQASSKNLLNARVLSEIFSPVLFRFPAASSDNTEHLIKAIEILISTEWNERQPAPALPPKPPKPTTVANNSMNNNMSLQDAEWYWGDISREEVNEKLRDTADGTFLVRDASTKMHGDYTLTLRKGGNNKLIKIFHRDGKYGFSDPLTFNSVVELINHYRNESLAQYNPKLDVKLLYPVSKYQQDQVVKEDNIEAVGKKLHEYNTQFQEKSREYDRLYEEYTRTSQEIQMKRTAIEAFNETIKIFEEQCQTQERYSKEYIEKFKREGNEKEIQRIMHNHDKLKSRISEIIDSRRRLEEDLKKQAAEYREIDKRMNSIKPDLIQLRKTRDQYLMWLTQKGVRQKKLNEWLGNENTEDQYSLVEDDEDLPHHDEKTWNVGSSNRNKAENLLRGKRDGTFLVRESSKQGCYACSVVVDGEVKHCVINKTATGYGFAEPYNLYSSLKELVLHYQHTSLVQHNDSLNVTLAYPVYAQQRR
UniProt Q14258: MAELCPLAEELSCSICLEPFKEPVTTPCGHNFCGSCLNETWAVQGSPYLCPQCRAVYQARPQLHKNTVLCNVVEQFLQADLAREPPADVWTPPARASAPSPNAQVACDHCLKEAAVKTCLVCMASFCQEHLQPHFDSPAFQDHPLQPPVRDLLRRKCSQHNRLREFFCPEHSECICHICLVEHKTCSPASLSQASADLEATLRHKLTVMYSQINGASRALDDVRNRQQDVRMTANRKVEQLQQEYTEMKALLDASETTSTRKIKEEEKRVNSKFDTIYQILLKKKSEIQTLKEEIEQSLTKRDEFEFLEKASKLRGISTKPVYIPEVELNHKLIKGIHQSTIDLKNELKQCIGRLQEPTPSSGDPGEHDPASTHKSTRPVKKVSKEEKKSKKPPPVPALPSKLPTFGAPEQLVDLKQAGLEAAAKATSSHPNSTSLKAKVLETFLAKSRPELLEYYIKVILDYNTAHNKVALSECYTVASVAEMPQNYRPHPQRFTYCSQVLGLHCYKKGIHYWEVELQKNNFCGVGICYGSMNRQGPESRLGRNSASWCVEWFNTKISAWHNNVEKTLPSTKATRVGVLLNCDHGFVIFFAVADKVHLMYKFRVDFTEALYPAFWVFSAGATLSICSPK

Experiments:
[1] = target: 3Flag-TRIM25 (tripartite motif 25) (UniProt Q61510); assay: affinity purification with mass spectrometry; HL-1/HEK293T cells transfected with GV314-3Flag-TRIM25 or GV314-3Flag-p85α for 48 h; lysed in Co-IP buffer (50 mM Tris-HCl, 150 mM NaCl, 5 mM EDTA, 1% NP-40, pH 7.6); anti-Flag affinity gel overnight at 4 °C; bound proteins analysed by mass spectrometry
3Flag-p85α = 3Flag-p85α (UniProt P26450); assay: as above

| binding [1] | binding (3Flag-p85α) | Substance |
| --- | --- | --- |
| binds |  | p85α (regulatory subunit of PI3K), endogenous in HL-1 cells (from UniProt P26450 1-724) |
|  | binds | TRIM25, endogenous in HEK293T cells (from UniProt Q14258 1-630) |
